Experimental data: US6518279B2, “Cyclopentanone dihydropyridine compounds useful as potassium channel openers” (Abbott Laboratories, priority 1999, dated 2003)
Some entries share one result that the patent states for a list of compounds.

assay: Aqueous solubility, 50 mM NaH2PO4 buffers, reverse-phase HPLC; format: physicochemical; conditions: Table 4
Description: Aqueous solubilities were determined by shaking 60 hours at room temperature in 50 mM NaH2PO4 buffers at pH's 6.5 and 7.4. Assays were performed using reverse-phase HPLC. The solubilities are expressed in nanomoles per milliliter in Table 4.

Compound	Water solubility compared with analogous compounds having two six-membered rings (Examples A-D)
O=C1CCC2=C1C(c1ccc(F)c(Br)c1)C1=C(CCC1=O)N2 [Example 1, 8-(3-Bromo-4-fluorophenyl)-2,3,4,5,6,8-hexahydrodicyclopenta[b,e]pyridine-1,7-dione]	vastly superior water solubility
N#Cc1cccc(C2C3=C(CCC3=O)NC3=C2C(=O)CC3)c1 [Example 2, 8-(3-Cyanophenyl)-2,3,4,5,6,8-hexahydrodicyclopenta[b,e]pyridine-1,7-dione]	vastly superior water solubility
O=C1CCC2=C1C(c1ccc(Cl)c([N+](=O)[O-])c1)C1=C(CCC1=O)N2 [Example 3, 8-(4-Chloro-3-nitrophenyl)-2,3,4,5,6,8-hexahydrodicyclopenta[b,e]pyridine-1,7-dione]	vastly superior water solubility
O=C1CCC2=C1C(c1cccc([N+](=O)[O-])c1)C1=C(CCC1=O)N2 [Example 4, 8-(3-Nitrophenyl)-2,3,4,5,6,8-hexahydrodicyclopenta[b,e]pyridine-1,7-dione]	vastly superior water solubility
